Measured values reported in ChEMBL document CHEMBL4043292, “Discovery and Optimization of Phosphopantetheine Adenylyltransferase Inhibitors with Gram-Negative Antibacterial Activity” (J Med Chem, 2018).

Experiments:
physchem [1] = details: buffer
physchem [2] = details: buffer, pH 7.4

SMILES: Cc1cc(N2CCN(C)CC2)c2[nH]c(N[C@H](CC#N)c3cccc(Cl)c3)nc2n1
- solubility (physchem [1]): > 547 µg/mL
- logD (physchem [2]): 2.6
